The assay is described as follows: qHTS Assay for Lipid Storage Modulators in Drosophila S3 Cells.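 On cell number change: cells counted by Cell Tracker Red CMTPX staining in the red channel.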 Conditions: BODIPY lipid droplet fluorescence, 18-24 h; for cell number change: measured here: cell count max response, cells fed with added oleic acid. The procedure, abridged:
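Drosophila S3 cells loaded with oleic acid (400 uM, as added) and compounds at several concentrations; lipid droplets imaged by 488-nm laser-scanning cytometry, 500–530 nm intensity and object ratio to cell channel. Percent activity normalized to 20 uM Triacsin C.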

Where [1] appears, read: measured here: lipid fluorescence (Fed channel) AC50, cells fed with added oleic acid.
[2] abbreviates: measured here: cell number channel AC50, cells fed with added oleic acid.

Some of the results follow. Shown are side measurements of this screen, not its main read-out; they come without a call. Most of these compounds were active or inconclusive in the main read-out, so they are no random draw. The note in brackets gives the kind of curve behind each potency; many fits are weak.

By AC50 is commonly meant the midpoint of the concentration-response curve, whichever way the signal moves. High values mean activity only at high concentration, low ones activity at low concentration. Turning to `O=C(NCC(=O)N1CCC(N2CCCCC2)CC1)C1CCCCC1`, the cell number change was -24.8%. Moreover, the AC50 under setting [1] was 18.4 µM [falling, partial curve].

With `N/C(=N\S(=O)(=O)c1cc(C(F)(F)F)cc(C(F)(F)F)c1)c1cccs1`, the cell number change is -43.2%. Also, under setting [2], the AC50 was 23.1 µM [falling, partial curve]. For the same compound, the AC50 under setting [1] is 25.9 µM [falling, partial curve].

With `CSCCC(NC(N)=O)C(=O)Nc1ccc(F)c(Cl)c1` (configuration not stated), the cell number change stood at 7.77%.

As for `CN(C)S(=O)(=O)c1ccc(Cl)c(NC(=O)COC(=O)c2ccc(O)cc2)c1`, the cell number change is -23.7%.

Consider `Fc1ccccc1-n1c(-c2ccc3ccccc3n2)n[nH]c1=S`, for which the cell number change was -0.923%. Further, the AC50 under setting [1] was 0.517 µM [rising, partial curve, poor fit].

For `CCc1ccc(NC(=O)C(=O)N/N=C(\C)CC(=O)Nc2ccc(OC)cc2)cc1`, the cell number change came out at 17%. Moreover, under setting [1], the AC50 was 1.16 µM [rising, single point].

With `COc1ccc(OC)c(-c2csc(NC(=O)C3=NN(c4ccccc4)C(=O)CC3)n2)c1`, the AC50 under setting [2] was 0.0058 µM [rising, full curve, poor fit].

On to `Cc1ccc(/C=C2/C(=N)N3N=C(CC(=O)N4CCCC4)SC3=NC2=O)cc1`, for which the cell number change is -4.01%. In addition, the AC50 under setting [2] is 3.26 µM [falling, single point].

For `Cc1cccc(Nc2nnc(SC3CCOC3=O)s2)c1C` (configuration not stated), the cell number change was determined as 37.9%. For the same compound, under setting [2], the AC50 is 13 µM [rising, single point].

`CCNC(=O)C(C)NC(=O)C1=NN(c2ccccc2)C(=O)CC1` (configuration not stated): the cell number change was found to be 19.2%.

`N#Cc1ccc(Oc2cc(C(F)(F)F)nc(-c3ccccn3)n2)cc1`: the cell number change was -6.45%. Moreover, the AC50 under setting [2] was 4.61 µM [rising, single point]. The AC50 under setting [1] was 1.64 µM [rising, partial curve].

As to `Cc1cc(S(=O)(=O)N2CCN(CC(=O)N(C)Cc3ccccc3)CC2)ccc1Br`, the cell number change is 25%. In addition, the AC50 under setting [1] is 3.66 µM [falling, single point].

Turning to `O=C(O)c1ccc(-n2cccn2)nc1`, the cell number change amounted to 2.55%.

For the compound `Cc1cccc(CN2C(=O)N/C(=C/c3cc(C)n(-c4ccccn4)c3C)C2=O)c1`, the cell number change stood at 1.24%. Also, the AC50 under setting [2] was 0.206 µM [rising, full curve, poor fit]. In addition, the AC50 under setting [1] was 1.03 µM [rising, full curve].

As to `COc1ccccc1C1Nc2cccc3cccc(c23)N1`, the cell number change was -58.4%. Besides, under setting [2], the AC50 is 29.1 µM [falling, single point]. Further, the AC50 under setting [1] was 29.1 µM [falling, single point].

Consider `COc1ccc(N2CCN(C(=O)c3cc4c(=O)n(Cc5ccccc5)ccc4nc3C)CC2)cc1`, for which the cell number change is -0.917%.

For the compound `CCCCNC(=O)CO/N=C(\C)c1cc2ccccc2o1`, the cell number change was 24%. For the same compound, under setting [1], the AC50 was 29.1 µM [rising, single point].

For the origin of these results see PubChem BioAssay AID2685 (National Center for Advancing Translational Sciences (NCATS), 2010).
